In paper PMC8918791:
These are yes or no findings as the source states them, for the method shown. In cells and extracts the contact can be indirect. Some entries that bind do so weakly or less than the wild type.

Protein sequences, listed by entry. Tags and fused reporters are not part of them.
UniProt O88778: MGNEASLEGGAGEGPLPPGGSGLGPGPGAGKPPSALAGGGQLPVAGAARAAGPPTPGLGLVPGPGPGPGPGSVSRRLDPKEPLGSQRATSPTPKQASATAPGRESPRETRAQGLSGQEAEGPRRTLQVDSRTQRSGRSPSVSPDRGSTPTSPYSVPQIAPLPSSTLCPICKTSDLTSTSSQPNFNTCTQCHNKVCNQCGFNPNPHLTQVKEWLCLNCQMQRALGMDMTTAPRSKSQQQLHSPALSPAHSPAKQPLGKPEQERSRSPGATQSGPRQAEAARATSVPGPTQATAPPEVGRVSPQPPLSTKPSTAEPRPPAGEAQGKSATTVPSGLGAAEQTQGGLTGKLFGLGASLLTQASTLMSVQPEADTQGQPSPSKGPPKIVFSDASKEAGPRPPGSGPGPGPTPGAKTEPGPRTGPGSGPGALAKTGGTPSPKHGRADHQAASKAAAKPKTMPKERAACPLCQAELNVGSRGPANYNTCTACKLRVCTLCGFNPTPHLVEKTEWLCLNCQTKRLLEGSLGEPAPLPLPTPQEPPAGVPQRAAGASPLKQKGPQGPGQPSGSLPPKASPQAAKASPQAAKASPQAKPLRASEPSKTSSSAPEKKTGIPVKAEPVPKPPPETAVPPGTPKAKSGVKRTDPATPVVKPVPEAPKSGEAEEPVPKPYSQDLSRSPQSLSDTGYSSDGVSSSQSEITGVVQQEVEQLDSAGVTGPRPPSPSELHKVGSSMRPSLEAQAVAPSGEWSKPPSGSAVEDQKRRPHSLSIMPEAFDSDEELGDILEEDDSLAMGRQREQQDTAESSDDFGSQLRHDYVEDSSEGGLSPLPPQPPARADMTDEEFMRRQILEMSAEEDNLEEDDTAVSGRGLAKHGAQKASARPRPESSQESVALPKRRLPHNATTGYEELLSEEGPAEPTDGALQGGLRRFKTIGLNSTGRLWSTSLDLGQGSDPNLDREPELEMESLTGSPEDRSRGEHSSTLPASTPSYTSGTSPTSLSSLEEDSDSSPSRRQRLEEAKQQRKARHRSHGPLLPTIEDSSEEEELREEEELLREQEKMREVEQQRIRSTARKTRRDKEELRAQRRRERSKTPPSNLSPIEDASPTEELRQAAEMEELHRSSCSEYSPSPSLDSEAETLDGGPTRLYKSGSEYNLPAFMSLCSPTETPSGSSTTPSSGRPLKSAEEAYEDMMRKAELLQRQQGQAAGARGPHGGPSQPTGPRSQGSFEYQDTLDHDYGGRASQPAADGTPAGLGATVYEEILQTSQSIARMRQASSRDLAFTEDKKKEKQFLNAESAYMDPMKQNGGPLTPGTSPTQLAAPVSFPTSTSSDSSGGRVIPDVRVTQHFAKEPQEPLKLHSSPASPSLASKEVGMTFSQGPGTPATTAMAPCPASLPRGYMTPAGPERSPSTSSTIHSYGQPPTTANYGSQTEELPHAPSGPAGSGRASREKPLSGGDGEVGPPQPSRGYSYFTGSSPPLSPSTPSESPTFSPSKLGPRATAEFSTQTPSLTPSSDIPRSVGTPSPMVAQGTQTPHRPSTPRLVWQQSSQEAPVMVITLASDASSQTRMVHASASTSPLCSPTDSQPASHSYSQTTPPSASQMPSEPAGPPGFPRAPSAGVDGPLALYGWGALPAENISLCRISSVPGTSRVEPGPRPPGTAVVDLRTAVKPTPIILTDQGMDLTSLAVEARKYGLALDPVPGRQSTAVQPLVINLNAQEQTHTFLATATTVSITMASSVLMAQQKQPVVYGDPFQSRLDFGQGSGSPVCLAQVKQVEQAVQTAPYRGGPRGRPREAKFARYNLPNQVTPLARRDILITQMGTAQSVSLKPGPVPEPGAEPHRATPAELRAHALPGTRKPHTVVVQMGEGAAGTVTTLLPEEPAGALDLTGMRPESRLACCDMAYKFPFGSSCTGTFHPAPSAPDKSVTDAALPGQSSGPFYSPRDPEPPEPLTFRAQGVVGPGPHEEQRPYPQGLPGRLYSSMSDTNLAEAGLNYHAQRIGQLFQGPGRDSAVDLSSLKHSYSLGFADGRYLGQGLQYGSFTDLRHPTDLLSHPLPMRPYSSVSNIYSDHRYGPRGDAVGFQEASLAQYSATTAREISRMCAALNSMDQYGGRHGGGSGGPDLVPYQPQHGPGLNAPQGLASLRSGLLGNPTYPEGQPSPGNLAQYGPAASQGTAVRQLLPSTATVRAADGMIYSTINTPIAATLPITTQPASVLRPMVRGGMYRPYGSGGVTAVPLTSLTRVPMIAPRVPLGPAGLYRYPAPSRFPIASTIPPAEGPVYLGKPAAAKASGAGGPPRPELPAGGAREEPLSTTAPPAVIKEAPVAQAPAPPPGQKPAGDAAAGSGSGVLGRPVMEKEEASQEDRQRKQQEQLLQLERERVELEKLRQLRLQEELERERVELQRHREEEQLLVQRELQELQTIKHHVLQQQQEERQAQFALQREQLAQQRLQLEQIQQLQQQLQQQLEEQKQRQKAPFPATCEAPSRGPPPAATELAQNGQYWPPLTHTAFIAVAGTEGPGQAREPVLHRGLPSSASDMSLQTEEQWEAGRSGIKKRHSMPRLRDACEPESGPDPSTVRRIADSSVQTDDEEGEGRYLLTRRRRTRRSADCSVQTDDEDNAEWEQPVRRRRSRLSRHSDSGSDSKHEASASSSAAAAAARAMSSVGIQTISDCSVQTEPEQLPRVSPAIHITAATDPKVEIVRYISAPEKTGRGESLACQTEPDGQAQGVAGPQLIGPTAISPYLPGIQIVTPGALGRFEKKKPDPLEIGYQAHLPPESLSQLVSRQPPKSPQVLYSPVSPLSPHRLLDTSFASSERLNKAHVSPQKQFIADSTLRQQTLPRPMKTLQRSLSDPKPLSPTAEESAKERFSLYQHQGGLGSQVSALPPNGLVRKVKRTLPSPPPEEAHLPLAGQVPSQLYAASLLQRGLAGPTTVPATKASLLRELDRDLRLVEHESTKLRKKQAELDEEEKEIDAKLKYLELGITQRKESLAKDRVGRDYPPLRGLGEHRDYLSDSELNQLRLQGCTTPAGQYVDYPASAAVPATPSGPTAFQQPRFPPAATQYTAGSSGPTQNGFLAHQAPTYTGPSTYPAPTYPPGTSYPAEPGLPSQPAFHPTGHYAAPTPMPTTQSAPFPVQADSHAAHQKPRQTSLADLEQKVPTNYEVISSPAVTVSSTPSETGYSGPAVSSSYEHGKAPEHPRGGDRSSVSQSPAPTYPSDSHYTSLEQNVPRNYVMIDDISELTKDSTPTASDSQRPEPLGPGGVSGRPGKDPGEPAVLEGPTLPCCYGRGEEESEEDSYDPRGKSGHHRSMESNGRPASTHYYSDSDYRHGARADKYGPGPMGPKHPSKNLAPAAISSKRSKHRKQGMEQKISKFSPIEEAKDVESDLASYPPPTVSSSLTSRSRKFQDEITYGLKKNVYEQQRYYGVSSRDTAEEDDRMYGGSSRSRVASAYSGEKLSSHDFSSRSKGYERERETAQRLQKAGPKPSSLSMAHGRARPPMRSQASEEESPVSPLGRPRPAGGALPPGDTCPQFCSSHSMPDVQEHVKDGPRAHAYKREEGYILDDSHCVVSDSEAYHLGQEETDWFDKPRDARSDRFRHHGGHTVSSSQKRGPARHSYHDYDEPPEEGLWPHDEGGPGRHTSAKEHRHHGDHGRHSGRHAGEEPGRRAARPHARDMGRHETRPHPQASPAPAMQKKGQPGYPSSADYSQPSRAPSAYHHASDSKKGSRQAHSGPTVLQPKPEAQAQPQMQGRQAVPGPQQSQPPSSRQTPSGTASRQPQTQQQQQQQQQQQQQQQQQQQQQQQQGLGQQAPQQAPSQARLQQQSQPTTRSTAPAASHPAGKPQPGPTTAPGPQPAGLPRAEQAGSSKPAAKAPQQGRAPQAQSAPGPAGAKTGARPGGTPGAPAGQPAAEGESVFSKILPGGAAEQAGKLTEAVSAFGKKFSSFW

Target: T1, ELKS (rat (endogenous in INS-1E)) (UniProt Q811U3)
T1 sequence: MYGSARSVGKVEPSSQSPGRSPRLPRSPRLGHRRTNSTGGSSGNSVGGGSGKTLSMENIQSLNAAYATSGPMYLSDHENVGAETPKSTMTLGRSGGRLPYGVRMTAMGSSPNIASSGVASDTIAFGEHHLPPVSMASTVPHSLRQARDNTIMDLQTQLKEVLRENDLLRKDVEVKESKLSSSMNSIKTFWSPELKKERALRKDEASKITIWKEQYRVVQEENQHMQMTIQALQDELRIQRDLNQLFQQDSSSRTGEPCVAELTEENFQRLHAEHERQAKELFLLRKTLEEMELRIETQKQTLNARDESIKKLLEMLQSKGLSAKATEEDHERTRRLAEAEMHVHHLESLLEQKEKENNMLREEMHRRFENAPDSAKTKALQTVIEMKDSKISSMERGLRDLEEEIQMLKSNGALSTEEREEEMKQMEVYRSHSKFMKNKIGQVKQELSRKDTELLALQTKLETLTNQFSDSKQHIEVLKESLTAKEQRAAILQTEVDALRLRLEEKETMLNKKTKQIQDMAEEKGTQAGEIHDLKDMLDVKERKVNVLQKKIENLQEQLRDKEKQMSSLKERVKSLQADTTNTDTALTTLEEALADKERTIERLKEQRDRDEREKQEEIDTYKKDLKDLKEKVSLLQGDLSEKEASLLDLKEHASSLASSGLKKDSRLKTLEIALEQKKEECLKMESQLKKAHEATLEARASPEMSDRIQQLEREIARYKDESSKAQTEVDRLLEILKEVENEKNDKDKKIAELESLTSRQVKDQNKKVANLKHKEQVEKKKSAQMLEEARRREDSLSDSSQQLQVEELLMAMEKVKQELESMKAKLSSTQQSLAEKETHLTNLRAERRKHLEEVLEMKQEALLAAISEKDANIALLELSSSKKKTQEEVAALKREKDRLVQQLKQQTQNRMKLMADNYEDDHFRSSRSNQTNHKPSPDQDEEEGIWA
Assay: co-IP; endogenous proteins from INS-1E cell extracts (20 mM Tris-Cl pH 7.5, 150 mM NaCl, 0.5 mM EDTA, 1 mM DTT, 1% Triton X-100), anti-ELKS antibody (Proteintech) on Protein A beads, 4°C; rabbit control serum/IgG as control; western blot

binding: binds
Substance: bassoon (from UniProt O88778 1-3938)
